Laboratory results from PMC11837641.
Results are given in words; binding and its absence hold for the method and conditions named. Binding seen in cells or lysates may run through a third protein. A result given as binding can be weak or reduced; the word gives no strength.

By UniProt entry, the sequences of proteins in these tests, tags left out. Where a name states a change or a piece, a line headed by the entry shows the natural chain unless it says otherwise.
UniProt Q9H239: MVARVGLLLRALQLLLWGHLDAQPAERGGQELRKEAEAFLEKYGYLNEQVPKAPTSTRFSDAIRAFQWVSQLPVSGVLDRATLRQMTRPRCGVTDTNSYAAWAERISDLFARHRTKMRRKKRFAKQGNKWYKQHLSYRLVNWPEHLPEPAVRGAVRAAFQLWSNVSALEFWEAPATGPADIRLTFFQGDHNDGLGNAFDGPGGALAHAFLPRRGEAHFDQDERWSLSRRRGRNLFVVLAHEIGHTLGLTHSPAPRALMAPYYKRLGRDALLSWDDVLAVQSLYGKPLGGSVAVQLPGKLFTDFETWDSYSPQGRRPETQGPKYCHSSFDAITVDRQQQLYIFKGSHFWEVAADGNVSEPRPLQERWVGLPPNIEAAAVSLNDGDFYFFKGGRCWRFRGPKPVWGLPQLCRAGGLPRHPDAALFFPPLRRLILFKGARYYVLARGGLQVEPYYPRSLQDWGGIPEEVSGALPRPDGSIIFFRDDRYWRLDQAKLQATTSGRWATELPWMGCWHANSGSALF
UniProt P07355: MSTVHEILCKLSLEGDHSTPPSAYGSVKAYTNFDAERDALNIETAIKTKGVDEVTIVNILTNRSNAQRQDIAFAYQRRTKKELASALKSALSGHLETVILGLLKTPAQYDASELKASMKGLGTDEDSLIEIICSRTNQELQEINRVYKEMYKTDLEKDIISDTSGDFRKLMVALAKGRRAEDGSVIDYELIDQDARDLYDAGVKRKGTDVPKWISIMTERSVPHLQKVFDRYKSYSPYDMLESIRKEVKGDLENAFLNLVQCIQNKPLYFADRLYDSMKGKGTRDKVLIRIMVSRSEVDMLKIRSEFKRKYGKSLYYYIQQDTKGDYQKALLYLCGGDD

Target: matrix metalloproteinase 28 (MMP28) (human (endogenous in AsPC-1 and BxPC-3)) (UniProt Q9H239)
Test: co-IP; AsPC-1 and BxPC-3 lysates (500 μg each) with anti-MMP28 or anti-ANXA2 antibody (2 μg), protein A/G agarose 4 °C 3 h, five RIPA washes; Western blot; endogenous proteins

Substance: annex protein A2 (ANXA2) (from UniProt P07355 1-339)
- binding: binds
